Test results from article PMC4333373.
For some of these results: A negative result means that nothing was seen under these conditions. For some of these results: For at least one entry, the source does not settle the construct or the ends of the probe. For some of these results: A weaker result is weaker than the reference pair of the same experiment.

Amino acid sequences for entries named in this document (tags omitted). A change or cut given only in a name is not applied to a line headed by its entry.
UniProt P26497: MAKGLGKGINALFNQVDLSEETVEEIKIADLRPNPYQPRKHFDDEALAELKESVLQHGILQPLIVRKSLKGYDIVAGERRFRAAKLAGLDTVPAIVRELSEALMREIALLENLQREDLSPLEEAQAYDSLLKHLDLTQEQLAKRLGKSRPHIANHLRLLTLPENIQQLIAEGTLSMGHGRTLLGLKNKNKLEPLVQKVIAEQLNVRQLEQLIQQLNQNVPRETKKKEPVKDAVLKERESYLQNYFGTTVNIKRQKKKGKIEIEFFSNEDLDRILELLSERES

Experiments:
[1] = target: ParB (Spo0J) (Bacillus subtilis 168) (UniProt P26497); test: SEC-MALS; settings: 50 mM Hepes-KOH pH 7.5, 100 mM KCl, 2.5 mM MgCl2, 0.1 mg/ml BSA, 1 mM DTT, 20 nM DNA, recombinant protein, residues 1-282, protein details: untagged
[2] = target: ParB (Spo0J) (Bacillus subtilis 168) (UniProt P26497); test: competition with a labelled probe; settings: 5 uM reverses condensation of parS MT DNA, larger amount than parS needed to prevent it; 50 mM Hepes-KOH pH 7.5, 100 mM KCl, 2.5 mM MgCl2, 0.1 mg/ml BSA, 1 mM DTT, 20 nM DNA; EMSA also 2.5% Ficoll, room temperature 30 min then ice 5 min, gel at 4 C; recombinant protein; residues 1-282; protein details: untagged; label: 5'-Hex on forward strand (SEC-MALS)
[3] = target: ParB (Spo0J) (Bacillus subtilis 168) (UniProt P26497); test: native MS; settings: no Mg2+, 300 mM ammonium acetate; 50 mM Hepes-KOH pH 7.5, 100 mM KCl, 2.5 mM MgCl2, 0.1 mg/ml BSA, 1 mM DTT, 20 nM DNA; recombinant protein; residues 1-282; protein details: untagged; label: 5'-Hex on forward strand

AGAACGTGCCCAGGGAGACAAAGA (double strand) [24-bp non-specific]
binding result ([1]; 9 uM ParB2, 10 uM DNA, label: 5'-Hex on forward strand): no binding

CAGCAGTTGAATCAGAACGTGCCCAGGGAGACAAAGAAAAAAGAACCTGT (double strand) [50-bp non-specific]
binding result ([1]; label: 5'-Hex on forward strand (SEC-MALS)): binds | binding result [2]: binds more weakly

TGTTCGCCAACTTGAGCAGCTGATTCAGCAGTTGAATCAGAACGTGCCCAGGGAGACAAAGAAAAAAGAACCTGTGAAAGATGCGGTTCTAAAAGAACGG (double strand) [100-bp non-specific]
binding result [3]: no binding
